Laboratory results from PubChem BioAssay AID463183 (Sanford-Burnham Center for Chemical Genomics, 2010).
The list shows a part of the results. These are further read-outs of the screen, such as a control signal, another cell line or another target. No call is given for them. The list favours compounds with an active or inconclusive main result.

Experiment: blockers of oleate-driven lipid droplets in liver cells – imaging, AML12 mouse hepatocytes, single concentration, high-content, confirmation (AID 463183);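 also: cells counted after overnight compound exposure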
Details: BODIPY lipid droplet imaging, measured here: cell count, cytotoxicity, at 5.2 µM, droplets induced with 100 µM oleic acid

| SMILES | cell count [cells] |
| --- | --- |
| Cc1cc(OCC(=O)NC2CC2)c2c(C)cc(=O)oc2c1 | 1620 |
| O=C(CNc1ccccc1)N/N=C/c1cn(-c2ccccc2)nc1-c1ccccc1 | 1690 |
| c1ccc(Oc2cccc(CN3CCCCC3)c2)cc1 | 1570 |
| COC(=O)Cn1c(O)c(N=NC(=O)CNC(=O)COc2cccc(C)c2)c2ccccc21 | 1570 |
| CC(=O)OCC(=O)[C@@]1(O)CC[C@H]2[C@@H]3CCC4=CC(=O)CC[C@]4(C)[C@H]3[C@@H](O)C[C@@]21C | 1600 |
| COc1ccc(Cl)cc1CNCCCSc1ncccn1 | 1580 |
| CCOc1ccc(CCNC(=O)CN2C(=O)c3cccnc3Oc3ccc(C)cc32)cc1OCC | 1650 |
| CCN1C(=O)/C(=C/C=C2/Sc3ccc4ccccc4c3N2CCO)SC1=S | 1650 |
| CCN(CCn1cccn1)C(=O)c1cc(COc2ccc(F)cc2Cl)on1 | 1630 |
| CC1=CC(C)(C)N2C(=O)C3(NCCc4c3[nH]c3ccccc43)c3cccc1c32 (configuration not stated) | 1650 |
| Cc1cc(N2CCOCC2)n2nc(C)c(-c3ccc(Cl)cc3)c2n1 | 1550 |
| COc1ccc(S(=O)(=O)N2CCOCC2)cc1NC(=O)c1ccccc1C | 1620 |
| COc1ccc(C(C(=O)NC2CCCC2)N(CCC(C)C)C(=O)CCC(=O)Nc2cc(C)on2)cc1 (configuration not stated) | 1580 |
| O=C(NCCO)c1cc2ccccc2cc1O | 1590 |
| CC(C)C(C)NC(=O)CSc1nc2scc(-c3ccco3)c2c(=O)n1-c1ccccc1 (configuration not stated) | 1590 |
| O=C(c1nn2c(C(F)(F)F)cc(-c3cccs3)nc2c1Br)N1CCCc2ccccc21 | 1290 |
| C=C(C)c1cccc(C(C)(C)NC(=O)Nc2ccccc2OCC)c1 | 1540 |

Two records drawn at random from those above, as already listed:

| SMILES | cell count [cells] |
| --- | --- |
| c1ccc(Oc2cccc(CN3CCCCC3)c2)cc1 | 1570 |
| CCN(CCn1cccn1)C(=O)c1cc(COc2ccc(F)cc2Cl)on1 | 1630 |
